Test results published in patent publication US20230250437.

Amino acid sequences for entries named in this document (tags omitted). Residues count along the entry.
UniProt P16422, 24-314: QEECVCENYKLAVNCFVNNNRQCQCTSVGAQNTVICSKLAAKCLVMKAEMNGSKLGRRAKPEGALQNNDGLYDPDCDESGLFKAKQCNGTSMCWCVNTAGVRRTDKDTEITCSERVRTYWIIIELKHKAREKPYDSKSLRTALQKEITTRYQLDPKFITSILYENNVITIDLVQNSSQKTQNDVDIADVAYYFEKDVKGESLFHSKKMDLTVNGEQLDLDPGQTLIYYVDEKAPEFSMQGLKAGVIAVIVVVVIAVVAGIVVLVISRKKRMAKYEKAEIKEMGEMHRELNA

molecular target: EpCAM (UniProt P16422); assay: SELEX; details: identified by library screening to recognize EpCAM; protein on the cell surface

Selection result, selected:
AUCCAGAGUGACGCAGCAGUCUUUUCUGAUGGACACGUGGUGGUCUAGUAUCACUAAGCCACCGUGUCCA [CAR003]

molecular target: HER2 (ERBB2) (UniProt P04626); assay: SELEX; details: purified recombinant protein; protein details: His tag, on Ni magnetic beads; single-stranded DNA

Selection result, selected:
TCCACCCGCCCCGACGCGCAACCTAGCCTCAAGCCA [HER2 binder 3053]
GTACCCGCCCCCCCCAATGACGCGTTATGCGCCCC [HER2 binder 3060]
TTGGCCCCAGCCACACACCCGTGCTTACCACCCCC [HER2 binder 3041]
GCCCCAGTCCGCCATCCAGATCCCTGCTCCACCTG [HER2 binder 3054]
GACGCCCCCGCCGTTACCACCACCCGCACTTGAA [HER2 binder 3049]
CACACCGGTGGCGGGGCAAGAATGGTGGTGGTGGAGA [HER2 binder 3050]
TCCACGCCCCATCAGCACGTCGGCCTCATACTCCCA [HER2 binder 3047]
GCGACCCCGCCCACACCCGTTACATCAACTGTTCG [HER2 binder 3052]
AATACCCGCCGCCCCGTACCAATACGCTCCGCACC [HER2 binder 3059]
CCGCACCAACCCAACACACACGAGGTGATGCCCCC [HER2 binder 3056]
TTGACTCGCACGCACACACATCACGCACCACCTGC [HER2 binder 3058]
ACTCCACCGCTCACCACGCCCAGTGAGCCATCCCT [HER2 binder 3055]
GTGCCCCCTTGTCCGTATCGCCCTTCATCCACGTGTGA [HER2 binder 3045]
ACCCATGTGCACCTCCTTCCCGCCTCATCGGGATT [HER2 binder 3044]
TCAACCGCCGCACGAGCCACCTCTGCACTCCACGC [HER2 binder 3051]
ATGCCTGCCCAACCCCCTGCCGTCGATTACACCGTA [HER2 binder 3046]
ACCCATCCCACCGCTTAGAGCGCACGCCCCTCCTCTGA [HER2 binder 3057]
AACCCCGGCACCCCCGTCCCCCTTCGATCTGGTCA [HER2 binder 3048]
TCCGCCCTGGTCGCCGCTTCCCCCTGCCGTTTGTT [HER2 binder 3040]
GTGCTCGCACGATCCCTACCCCCCCGTAGCACCCA [HER2 binder 3043]
TGCCCATCCTCCACCCCTCGTGCCGTCGATCCCAC [HER2 binder 3061]
ATCCCCCAGGCCCCCCTCCACGGCCAATTCCTTGG [HER2 binder 3042]
CCACGCCCTGGATGTCGCGTTCACTGGTTCTCCCC [HER2 binder 3039]

For at least one entry, the source does not settle the construct or the ends of the probe. For part of these data: At least one result comes from cells or an extract, where the contact may be indirect.
